PubChem BioAssay AID493014 (National Center for Advancing Translational Sciences (NCATS), 2011)
The whole screen tested about 340,000 compounds, of which about 170 (0.05%) were called active. Inconclusive results, whose numbers are uncertain, are shown with a selection of clear calls. Calls come from the whole dose curve; as a rule, active = well fitted inhibition curve with a large enough effect in the signal ratio, with a control signal flat (not every such curve was filed as active); inconclusive = small, poorly fitted or top-dose-only effect, or effect the other way, or a change in a side signal; inactive = flat fitted curve, though single readings scatter; the % refers to the signal ratio. Where the call is inconclusive, the potency comes from a doubtful curve fit.

Experiment: qHTS Assay to Find Inhibitors of Chronic Active B-Cell Receptor Signaling;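 for activity change, negative = inhibition: plate controls were basal doxycycline-induced cells for no effect and cells given 10 µM MG132 for full effect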
Details: ABC-DLBCL IkBa-CBG/CBR reporter, luminescence ratio (green luciferase fused to IkBa over red control in TMD8 lymphoma cells), 4 h; activity change, negative = inhibition: at 46.1 µM (top of the series)
Summary of the method: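 Doxycycline induced both beetle luciferases in TMD8 lymphoma cells; IKK-driven degradation limits the IkappaBalpha-fused green signal, while red luminescence normalises for cell number and nonspecific effects. Compounds tested up to 46 uM, 4 hrs.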
Potency is the fitted concentration of half-maximal effect.

Compound | Potency | activity change, negative = inhibition
COc1cccc(C2CC(=O)Nc3cc4c(cc32)CCC4)c1 (stereo not given) | inconclusive: 22.4 µM [falling, single point] | –
O=c1cccc2n1Cc1cc3ccccc3nc1-2 | – | inconclusive: -0.228%
CCOc1ccccc1NC(=O)c1c(NCc2ccc(OC)c(OC)c2OC)sc2c1CCC(C)C2 (stereo not given) | inconclusive: 3.55 µM [falling, full curve, poor fit] | –
O=C(N/N=C/c1cccc(O)c1)c1ccc(NC(=O)c2cccc([N+](=O)[O-])c2)cc1 | inconclusive: 22.4 µM [falling, partial curve, poor fit] | –
O=C(Nc1nccs1)c1ccc(COc2ccccc2Br)o1 | – | inconclusive: 9.35%
Cc1cc(N2CCOCC2)nc(-c2ccc(Br)cc2)n1 | – | inconclusive: 5.61%
CC1CCCC(NS(=O)(=O)c2ccc3c(c2)OCCO3)C1C (stereo not given) | – | inconclusive: -0.194%
CCN(CC)C(=O)[C@H]1CC(CC(=O)NCc2ccco2)C(=O)N2CCc3c([nH]c4ccc(OC)cc34)[C@]12C (stereo not given in full) | – | inconclusive: -3.52%
Cc1ccc(C)c(Cn2c(=O)n(CCCC(=O)NCc3ccco3)c(=O)c3sccc32)c1 | – | inconclusive: 0.446%
COc1ccc(/C=N/NC(=O)C2C3CCCCC32C)cc1OC (stereo not given) | – | inconclusive: -0.313%
O=S(=O)(c1cccs1)N1CN(Cc2ccco2)c2nc3ccccc3nc21 | – | inconclusive: 10.5%
Fc1ccc(Nc2nc(-c3cccnc3)cs2)cc1 | – | inconclusive: -3.17%
CC(C)c1ccc(NC(=O)CNC(=O)Cn2cnc3ccccc3c2=O)cc1 | – | inconclusive: 2.08%
Cc1ccc(C2=[N+]([O-])C3(CCCCC/C3=N\NC(N)=S)N(O)C2(C)C)o1 (stereo not given) | – | inactive
CC(C)CCn1nc(C(=O)Nc2nc3c(s2)CCCC3)c2ccccc2c1=O | – | inconclusive: 12.4%
CCc1ccc(OC)c(S(=O)(=O)NCc2cccs2)c1 | – | inconclusive: -5.17%
CC(C)Oc1ccc(C(CC(=O)O)c2ccc(F)cc2)cc1 (stereo not given) | – | inactive
O=[N+]([O-])c1cccc(/C=C/c2nc(C=Nc3ccccc3)c(O)o2)c1 | – | inconclusive: 0.585%
O=C(c1c[nH]c(C(=O)C(Cl)(Cl)Cl)c1)c1ccccc1F | inconclusive: 11.2 µM [falling, partial curve] | –
O=C(O)CCC(=O)N1N=C(c2c(-c3ccccc3)c3cc(Cl)ccc3[nH]c2=O)CC1c1cccs1 (stereo not given) | – | inconclusive: 6.2%
Cc1ccc(NC(=O)c2cccc(OCc3c(C)noc3C)c2)cc1S(=O)(=O)Nc1ccccc1Cl | inconclusive: 23.1 µM [falling, single point] | –
CC1(C)CC(=O)C2=C(C1)N(Cc1ccco1)C(=O)C2(NC(=O)C1CCCCC1)C(F)(F)F (stereo not given) | – | inconclusive: -1.51%
C(=N\Nc1nc(Nc2ccccc2)nc(Nc2ccccc2)n1)/c1cccnc1 | – | inconclusive: 7.86%
CCCCOc1ccc(C(=O)Nc2ccc(OCC(=O)N3CCOCC3)cc2)cc1 | – | inactive
Cc1cc(C)c(-n2c(SCCS(=O)(=O)c3ccc(F)cc3)n[nH]c2=O)c(C)c1 | inconclusive: 15.8 µM [falling, partial curve] | –
Cc1ccc(/C=N/Nc2nc(N3CCOCC3)nc(N3CCOCC3)n2)o1 | inconclusive: 10 µM [falling, partial curve, poor fit] | –
Cc1cc(C)cc(N2C(=O)CC(Sc3nnnn3-c3ccccc3)C2=O)c1 (stereo not given) | – | inconclusive: -5.5%

Compound | Potency | activity change, negative = inhibition
CCn1c(C)[n+](CC)c2ccc(S(=O)(=O)NC)cc21 | – | inactive
CCOC(=O)c1sc2c(c1C)c(=O)c(C(=O)OCC)cn2CC | – | inconclusive: 9.45%
Cc1ccc(NC(=O)CSc2nnc(C3CCCCC3)n2N)cc1F | – | inconclusive: 4.72%
CC(C)Sc1nc2ccc(N3C(=O)C4CCCCC4C3=O)cc2s1 (stereo not given) | – | inconclusive: 5.26%
COc1ccc(/C=N/NC(=O)c2ccc(=O)n(C)c2)cc1OC | inconclusive: 15.8 µM [falling, partial curve, poor fit] | –
Cc1ccc(-c2nc3c(c(=O)c4ccccc4n3C)c(=O)n2-c2ccc(F)cc2)cc1 | – | inconclusive: 9.04%
N/C(=N/OC(=O)c1cccc([N+](=O)[O-])c1)c1cccc([N+](=O)[O-])c1 | – | inactive
Cn1c(=NC(=O)c2ccc(F)cc2)sc2cc(Br)ccc21 | – | inconclusive: -1.26%
CCC(=O)NCCc1nc2cc(NC(=O)COc3ccccc3)ccc2n1C | inconclusive: 17.8 µM [falling, single point] | –
CCCCOC(=O)Nc1ccccc1C(=O)N1CCCC1 | – | inconclusive: 0.143%
COc1cccc(OCc2cc(C(=O)NC(C)c3cnn(C)c3C)no2)c1 (stereo not given) | inconclusive: 31.6 µM [falling, single point] | –
CCC1(C)N=C(c2ccc3c(c2)OCO3)CC(c2ccccc2O)N1 (stereo not given) | inconclusive: 1.84 µM [falling, partial curve] | –
CSc1ncc(C(=O)Nc2ccc(Cl)cc2)c(C)n1 | – | inconclusive: -8.23%
Nc1cccc2c1C(=O)N(C(=O)c1ccc(S(=O)(=O)N3CCCCCC3)cc1)C2=O | – | inconclusive: -0.404%
Cc1ccc(OCC(=O)N2CCc3ccccc32)c([N+](=O)[O-])n1 | – | inconclusive: 6.87%
O=C(COc1ccc(Br)cc1Cl)NNC(=O)c1ccccc1 | – | inconclusive: 8.3%
CCOC(=O)c1cnn(-c2nc3sc4c(c3c(=O)[nH]2)CCCC4)c1N | – | inconclusive: -7.28%
CN1CCC=C(C(=O)N2c3ccccc3Sc3ccc(Cl)cc32)C1 | – | inconclusive: -22%
CN(C)S(=O)(=O)N1CCCC(C(=O)c2ccc(-c3ccccc3)cc2)C1 (stereo not given) | – | inactive
N=c1oc2ccccc2cc1C(=O)NCc1ccccc1 | – | inconclusive: -18.3%
CC(=O)Nc1nccc(-c2cc(-c3ccccc3)no2)n1 | inconclusive: 11.2 µM [falling, partial curve] | –
OC1CCN(c2c3c(nc4cc(-c5ccc(F)cc5)nn24)CCC3)CC1 | – | inactive
COc1ccc(/C=C/C(=O)O)cc1COc1ccccc1C | – | inconclusive: 10.6%
CCOC(=O)c1c(C)[nH]c(NC(=O)NNC(=O)c2ccc(OC)cc2)c1C | – | inconclusive: -9.41%
CC(=O)c1cccc(NC(=O)c2noc3c2CC(C)CC3)c1 (stereo not given) | – | inconclusive: 18.7%
CCN1CCN(Cc2ccc(NC(=O)CC3Oc4ccc(C)cc4NC3=O)cc2)CC1 (stereo not given) | – | inconclusive: 11%
O=C1CN(CC(=O)Nc2cccc(Cl)c2Cl)c2ccccc2N1 | – | inconclusive: -11.8%

Compound | Potency | activity change, negative = inhibition
COc1ccccc1C(=O)Nc1nnc(S(=O)(=O)N(C)Cc2ccccc2)s1 | – | inconclusive: 9.42%
CC(C)(C)NS(=O)(=O)c1ccc(CCC(=O)N2CCCC2)cc1 | – | inconclusive: 4.49%
O=C(Nc1ccccc1)N1CCCC1c1cccs1 (stereo not given) | – | inconclusive: -79%
O=[N+]([O-])c1nn(-c2ccc3c(c2)OCCO3)n(O)c1=NCc1ccc(F)cc1 | – | inactive
O=c1[nH]c2ccccc2n1CCCOc1ccccc1 | – | inconclusive: -11.4%
CSC1=N/C(=C\C=C\c2cccs2)C(=O)S1 | – | inconclusive: 12.1%
CCc1ccc2nc(N(Cc3cccnc3)C(=O)c3cccs3)sc2c1 | inconclusive: 7.08 µM [falling, partial curve] | –
CN1CCN(S(=O)(=O)c2ccc3c(c2)C(C)(C)C(=O)N3C)CC1 | – | inconclusive: 17.5%
Cc1cc(C=C2C(=O)c3ccccc3C2=O)c(C)n1-c1cccc(C(=O)O)c1 | inconclusive: 35.5 µM [falling, single point] | –
COc1ccc(/C=C/C(=O)NCc2cn(C)nc2C)cc1COc1ccc(Cl)cc1Br | – | inactive
Cc1ccc(/C=C/C2=Cc3c(sc(NC(=O)CSc4n[nH]c(N)n4)c3C#N)C(C)(C)C2)o1 | – | inactive
COc1ccc(C(=O)C2CCCN(C(=O)c3noc4c3CCCC4)C2)cc1F (stereo not given) | – | inactive
CC(C)C(NC(=O)c1ccccc1)C(=O)OCC(=O)N1CCN(c2ccccc2)CC1 (stereo not given) | – | inactive
N=C1C(c2nc3ccccc3[nH]2)=C(O)CN1C1CCCCC1 | – | inconclusive: -3.41%
O=C(c1ccc(Cn2c(=S)[nH]c3ccc(N4CCOCC4)cc3c2=O)cc1)N1CCC(N2CCCCC2)CC1 | inconclusive: 10 µM [falling, partial curve, poor fit] | –
CC1CCCN(S(=O)(=O)c2ccc(NC(=O)CNC3CCCC3)cc2)C1 (stereo not given) | – | inactive
CC(=NCCCn1ccnc1)C1=C(O)c2ccccc2C1=O | – | inconclusive: -8.72%
CCCOC(=O)c1ccc(NC(=O)c2ccoc2C)cc1 | inconclusive: 16.4 µM [falling, partial curve, poor fit] | –
CN(C)c1ccc(C2CNC(c3ccc(Cl)c([N+](=O)[O-])c3)c3[nH]c4ccccc4c32)cc1 (stereo not given) | – | inactive
Cc1cccc(CS(=O)(=O)c2ncc(Cl)c(C(=O)NCc3ccc4c(c3)OCO4)n2)c1 | inconclusive: 22.4 µM [rising, partial curve, poor fit] | –
CSc1ccc(CN2CCC(CO)(CCOc3ccccc3)CC2)cc1 | – | inactive
CN1CCc2c(sc3c2C(=O)NC(c2ccc(-c4cccc(Cl)c4)o2)N3)C1 (stereo not given) | inconclusive: 2.82 µM [falling, full curve] | –
O=C(Nc1ccncc1)c1ccccc1Cl | – | inconclusive: -10.5%
Cc1cccc(NC(=O)CN(C)S(=O)(=O)c2ccc(Br)cc2)n1 | – | inconclusive: 11.7%
COc1ccc(NC(=O)CS(=O)(=O)c2cn(CC(=O)N3CCOCC3)c3ccccc23)cc1OC | – | inconclusive: -7.26%
N=c1c(C(=O)NC2CCCC2)cc2c(=O)n3ccccc3nc2n1C1CCCC1 | – | inactive

A portion from further up, as a working copy:
Compound | Potency | activity change, negative = inhibition
CC(=O)Nc1nccc(-c2cc(-c3ccccc3)no2)n1 | inconclusive: 11.2 µM [falling, partial curve] | –
OC1CCN(c2c3c(nc4cc(-c5ccc(F)cc5)nn24)CCC3)CC1 | – | inactive
COc1ccc(/C=C/C(=O)O)cc1COc1ccccc1C | – | inconclusive: 10.6%

2 of the compounds above, in markdown:

| Compound | Potency | activity change, negative = inhibition |
| --- | --- | --- |
| CC(C)(C)NS(=O)(=O)c1ccc(CCC(=O)N2CCCC2)cc1 | – | inconclusive: 4.49% |
| O=C(Nc1ccccc1)N1CCCC1c1cccs1 (stereo not given) | – | inconclusive: -79% |
